Reference: paper PMC5768801, “The PII signaling protein from red algae represents an evolutionary link between cyanobacterial and Chloroplastida PII proteins” (Scientific Reports, 2018)

Tested on: CrPII
Assay: ITC binding of small effector molecules to green algal CrPII
Parameters: species or system Chlamydomonas reinhardtii
Protocol: To gain additional insights into the ligand binding properties of PpPII in comparison to cyanobacterial and chloroplastid PII proteins, isothermal titration calorimetry (ITC) experiments were performed using highly purified Strep-tagged or His-tagged recombinant PpPII, SyPII, CrPII, and PhyscoPII proteins (Supplementary Fig. S1) with different protein/ligand/ concentrations to determine the best fitting conditions of the binding model. The titration experiments were repeated with different protein preparations to confirm the reproducibility of the results. The raw isothermal data were fitted into one-binding site as well as three-sequential binding sites to define the best fitting model. Fitting using a one binding site model states an average Kd value for all available binding sites and the mean of the stoichiometry of bound ligands.
The ITC experiments were done using a VP-ITC microcalorimeter (MicroCal, LCC). All details for determination of binding constants for small effector molecules using ITC are fully described in the supplementary information. Heat isotherms of the dilution of the ligand in the cell buffer were collected in a blank run for each experiment in the absence of protein. The binding isotherms were calculated from received data and fitted to one-site and three-sequential binding sites models using the MicroCal ORIGIN software (Northampton) as described. All titrations were performed in duplicates with different purification batches of recombinant PII proteins. The association binding constant (Ka) was generated from the software by de-convolution and curve fitting. For calculation of dissociation constant (Kd), the Ka value was inversed.
Supplementary Information […]
Determination of Binding Constants for Small Effector Molecules using Isothermal […]
The binding of the small effector molecules to the recombinant PII proteins was tested using isothermal titration calarmity (ITC); VP-ITC microcalorimeter (MicroCal). All titrations were performed on 20°C using […] injection syringe with injection 6 µl or 10 µl of the tested ligands for 45 or 29 times, respectively into the cell (1.4 ml) with continuous stirring at 155 rpm. All tested ligands were high grade, prepared freshly in the same buffer of the protein and purchased from Sigma-Aldrich. Heat isotherms for the dilution of the ligand in the cell buffer were collected in a blank run in the absence of protein. The received calorimetric data were analyzed using MicroCal Origin software and fitted into one-site and three-sequential binding sites models, as indicated by the manufacture for calculation of binding isotherms9. For data reproducibility, the titrations were performed in duplicates with different purification batches of recombinant PII proteins. The association binding constant (Ka) was generated from the software by de-convolution and curve fitting. For calculation of dissociation constant (Kd), the Ka value was inversed. […]

| SMILES | N, number of calculated binding sites (one-site binding model) (in presence 2-OG (2 mM)) | N, number of calculated binding sites (one-site binding model) (titrant alone) | N, number of calculated binding sites (one-site binding model) (in presence ADP (2 mM)) | N, number of calculated binding sites (one-site binding model) (in presence ATP (2 mM)) |
| --- | --- | --- | --- | --- |
| Nc1ncnc2c1ncn2[C@@H]1O[C@H](COP(=O)(O)OP(=O)(O)O)[C@@H](O)[C@H]1O [ADP] | No binding | No binding |  |  |
| O=C(O)CCC(=O)C(=O)O [2-OG, 2-oxoglutarate] |  |  | No binding | 2.6 |
| Nc1ncnc2c1ncn2[C@@H]1O[C@H](COP(=O)(O)OP(=O)(O)OP(=O)(O)O)[C@@H](O)[C@H]1O [ATP] | 2.6 | No binding |  |  |
